PubChem BioAssay AID1671195 | Yale University – 2021
Test: 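Knockdowns that increase or decrease uptake of fluorescent LDL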 (primary screen). Cell system: human Huh7 hepatoma cells. Reagents: siRNA pool against human genes, 18 nM. Timing: about 2 to 2.5 days of knockdown, then 8 h LDL uptake. Treatment: DiI-labelled LDL at 30 µg/ml for 8 h, in lipoprotein-deficient serum medium. Measured: 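Fluorescent LDL signal imaged in cells, scaled to the plate median, robust z-score for each replicate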. Direction: robust z-score: higher = more LDL uptake after knockdown. Hit rule: 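a gene counts as active if at least two replicate z-scores exceed ±2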.
In all, the deposit lists about 22,000 reagents; shown is an unselected part. About 1,510 of them (6.9%) count as active. 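Active includes knockdowns raising or lowering LDL uptake; positive z-scores mean more uptake, negative mean less.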 A number with no mark means an inactive call.

| gene symbol | PubChem SID | robust z-score, replicate 1 | robust z-score, replicate 2 | robust z-score, replicate 3 |
| --- | --- | --- | --- | --- |
| SCO1 (synthesis of cytochrome C oxidase 1) | SID442903080 | -1.12 | -1.36 | -1.15 |
| KCNQ4 (potassium voltage-gated channel subfamily Q member 4) | SID442896424 | -0.163 | -0.0178 | -0.635 |
| LOC440505 (retired record) | SID442887518 | 0.923 | 1.23 | 0.542 |
| JMJD8 (jumonji domain containing 8) | SID442894963 | 0.084 | -0.193 | -0.244 |
| IFIT5 (interferon induced protein with tetratricopeptide repeats 5) | SID442894090 | 0.0597 | -0.0101 | -0.126 |
| SENP2 (SUMO specific peptidase 2) | SID442893843 | -0.096 | 0.0489 | 0.0625 |
| LINC02288 (long independently transcribed non-coding RNA 2288) | SID442883737 | 2.47 (active) | 2.3 | 2.4 |
| TIMM22 (translocase of inner mitochondrial membrane 22) | SID442887338 | 0.124 | 1.61 | 1.07 |
| CACNA2D4 | SID442901129 | -0.434 | -1.15 | -0.977 |
| C11orf58 (chromosome 11 open reading frame 58) | SID442903323 | -2.13 | -0.0416 | -1.65 |
| ATP2B3 (ATPase plasma membrane Ca2+ transporting 3) | SID442903791 | -1.47 | -1.44 | -1.26 |
| DCAF8 (DDB1 and CUL4 associated factor 8) | SID442901322 | -0.615 | -0.543 | -1.49 |
| EHD4 (EH domain containing 4) | SID442897609 | -1.11 | 0.116 | -0.216 |
| MAF (MAF bZIP transcription factor) | SID442890078 | 0.0627 | 1.22 | 0.12 |
| SULF1 (sulfatase 1) | SID442902528 | -1.35 | -1.28 | -0.663 |
| CTSK (cathepsin K) | SID442888514 | 1.27 | 0.153 | 0.696 |
| ADH7 (alcohol dehydrogenase 7 (class IV), mu or sigma polypeptide) | SID442883415 | 3.32 (active) | 2.76 | 2.85 |
| RIOK2 (RIO kinase 2) | SID442888464 | 0.382 | 0.5 | 1.26 |

Next part; the last 4 above are carried over.
| gene symbol | PubChem SID | robust z-score, replicate 1 | robust z-score, replicate 2 | robust z-score, replicate 3 |
| --- | --- | --- | --- | --- |
| SULF1 (sulfatase 1) | SID442902528 | -1.35 | -1.28 | -0.663 |
| CTSK (cathepsin K) | SID442888514 | 1.27 | 0.153 | 0.696 |
| ADH7 (alcohol dehydrogenase 7 (class IV), mu or sigma polypeptide) | SID442883415 | 3.32 (active) | 2.76 | 2.85 |
| RIOK2 (RIO kinase 2) | SID442888464 | 0.382 | 0.5 | 1.26 |
| FAM24A (family with sequence similarity 24 member A) | SID442895418 | 0.128 | -0.153 | -0.474 |
| OR8K5 (olfactory receptor family 8 subfamily K member 5) | SID442887787 | 0.956 | 0.964 | 0.602 |
| ADRA1B (adrenoceptor alpha 1B) | SID442890795 | 0.66 | 0.248 | 0.195 |
| SLC41A3 | SID442883587 | 2.52 (active) | 3.18 | 2.15 |
| PLD6 (phospholipase D family member 6) | SID442895969 | -0.573 | -0.464 | 0.362 |
| TAS2R38 (taste 2 receptor member 38) | SID442896625 | -0.268 | -0.992 | 0.379 |
| LOC401701 (retired record) | SID442897893 | -0.153 | -0.797 | -0.359 |
| MYOM1 (myomesin 1) | SID442889733 | -0.787 | 1.84 | 0.5 |
| EDN1 (endothelin 1) | SID442892691 | 0.439 | 0.0356 | -0.0695 |
| KIAA0930 | SID442895016 | -0.349 | 0.683 | -0.708 |
